The target in test [1] is Recombinant TGFbRII-Fc protein (R&D systems) (human) (UniProt P37173). Kind of test: titration ELISA on plates coated with TGFbRII-Fc at 1 µg/ml; His-purified dAb in two-fold dilutions from 10 µg/ml; detection with anti-C-Myc-HRP.
Test [2] shares this target. Kind of test: titration ELISA, TGFbRII-Fc coated at 1 µg/ml, dAb from 10 µg/ml two-fold, anti-c-Myc-HRP. A general note: In an ELISA, binding on a coated surface is turned into a signal by an enzyme label.

By UniProt entry, the sequences of proteins in these tests, tags left out. Where a name states a change or a piece, a line headed by the entry shows the natural chain unless it says otherwise.
UniProt P37173: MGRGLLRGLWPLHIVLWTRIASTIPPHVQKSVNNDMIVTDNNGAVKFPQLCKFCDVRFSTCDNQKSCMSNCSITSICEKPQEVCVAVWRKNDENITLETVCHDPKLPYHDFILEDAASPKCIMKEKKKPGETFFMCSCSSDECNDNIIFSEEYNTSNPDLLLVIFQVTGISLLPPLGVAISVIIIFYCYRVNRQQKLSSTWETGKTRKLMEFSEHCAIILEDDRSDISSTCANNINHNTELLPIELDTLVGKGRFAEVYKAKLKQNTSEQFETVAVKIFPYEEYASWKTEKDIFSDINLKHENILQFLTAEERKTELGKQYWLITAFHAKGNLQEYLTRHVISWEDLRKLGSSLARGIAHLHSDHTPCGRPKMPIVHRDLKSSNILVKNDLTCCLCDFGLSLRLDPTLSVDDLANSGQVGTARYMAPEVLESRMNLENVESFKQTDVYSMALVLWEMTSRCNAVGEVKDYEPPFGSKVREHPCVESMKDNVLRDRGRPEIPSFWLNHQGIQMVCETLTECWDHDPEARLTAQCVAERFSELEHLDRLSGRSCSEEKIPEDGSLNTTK

The values that follow come from patent publication US20210244762A1 (AUTOLUS, published 2021).

Results are given in words; binding and its absence hold for the method and conditions named. Some entries that bind do so weakly or less than the wild type.

B1: anti-TGFβRII single domain antibody (dAb) clone H3 (VHH)
VHH: QVQLQQSGGGLVQAGGSLRLACAASGRSFSIYGITWFRQAPGKEREFVAAITGSGLTTNYADSVKGRFTISRDNAKNMVYLQLNSLKPDDTAVYYCAATRAYSGYYGENPTRYAYWGQGTQVTVS
notes: H3 is the one clone not 'related' to the other three; also called dAb H3; anti-TGFbRII VHH H3
Turning to B1, the binding result in test [1] and in test [2] was “binds” each time.
